Assay results: PubChem BioAssay AID540276 (National Center for Advancing Translational Sciences (NCATS), 2011)
Out of some 300,000 compounds screened, about 5,400 (1.8%) were called active. This list was built around the results that the source calls inconclusive (neither active nor inactive); the mix of calls is not that of the screen. Calls come from the whole dose curve; tested in HEK293 cells. A potency beside an inconclusive call is a rough fit, not a confirmed value.

assay: qHTS for inhibitors of binding or entry into cells for Marburg Virus; conditions: Marburg virus pseudotyped entry inhibition, cell reporter; activity change, negative = inhibition: at 37.8 µM (top of the series) unless noted
% is set by controls: 0 for no effect and ±100 for the full control effect; potency is the fitted concentration of half-maximal effect.

Structure (SMILES) | Potency | activity change, negative = inhibition
CCN(CC(=O)Nc1ccccc1C(F)(F)F)C(=O)c1ccccc1OCc1ccc(F)cc1 | inconclusive: 22.4 µM [inhibitor, single point] | 
COc1ccc(NC(=O)CSc2nnc(-c3cccs3)n2-c2ccccc2)cc1 | inconclusive: 22.4 µM [inhibitor, partial curve, poor fit] | 
Cc1ccc(S(=O)(=O)CCC(=O)OCC(=O)c2c(C)[nH]c3ccccc23)cc1 | inactive | 
CN=C1SC(C(=O)Nc2ccccc2Cl)CC(=O)N1c1ccc(OC(F)(F)Cl)cc1 (stereo unspecified) | inconclusive: 7.08 µM [inhibitor, partial curve, poor fit] | 
Cc1ccc(NC(=O)c2ccc(OC(F)F)cc2)cc1S(=O)(=O)N(C)C | inconclusive: 35.5 µM [inhibitor, single point] | 
CCOc1ccc(-n2nc3ccc(NC(=O)c4ccc5c(c4)OCCO5)cc3n2)cc1 | inconclusive: 11.6 µM [inhibitor, partial curve, poor fit] | 
CCOC(=O)CN1N=C(/C=C/c2ccccc2)CCC1=O | inactive | 
CCOc1ccc(/C=N/NC(=O)CC(=O)Nc2ccc(Cl)c(Cl)c2)cc1 | inconclusive: 1.26 µM [activator, single point] | 
Cc1ccsc1C(=O)OC(C)C(=O)Nc1ccc(Cl)cn1 (stereo unspecified) | inconclusive: 0.141 µM [activator, full curve, poor fit] | 
Cc1cc(C(=O)NNS(=O)(=O)c2ccccc2C(F)(F)F)nn1C(C)(C)C | inconclusive: 0.891 µM [inhibitor, full curve, poor fit] | 
COc1ccc(-c2nc3ccccc3n2OC(C)C(=O)O)cc1 (stereo unspecified) | inactive | 
COC(=O)COc1ccc(S(=O)(=O)N2CCN(c3ccccc3)CC2)cc1 | inconclusive: 12.6 µM [activator, partial curve, poor fit] | 
CCOC(=O)c1c(N)sc(C(O)(C(F)(F)F)C(F)(F)F)c1-c1ccc(Cl)cc1 | inconclusive: 29.1 µM [inhibitor, single point] | 
C=C(C)CNC(=O)CCc1nnc(Cc2cccc(C(F)(F)F)c2)o1 | inconclusive: 6.31 µM [activator, single point] | 
COC(=O)[C@H](C)Sc1nc2c(c(=O)n(C)c(=O)n2C)n1CCC(C)C | inactive | 
OC(COc1ccc(CNCCc2ccc(C(F)(F)F)cc2)cc1)CN1CCCCC1 (stereo unspecified) | inconclusive: 3.16 µM [inhibitor, full curve, poor fit] | 
N#C/C(=C\c1ccc(OCc2ccc(Br)cc2)cc1)C(=O)Nc1cccc(C(=O)O)c1 | inconclusive: 35.5 µM [inhibitor, single point] | 
CCOC(=O)C1CCCN(Cc2cc(Br)ccc2OC)C1 (stereo unspecified) | inconclusive: 0.82 µM [inhibitor, full curve] | 
CC(C)(C)[C@H](N)C(=O)N[C@H]1CCC2C3CC=C4C[C@@H](O)CC[C@]4(C)C3CC[C@@]21C (stereo partly specified) | inconclusive: 35.5 µM [inhibitor, single point] | 
COc1ccc(Cc2nnc(SCC(=O)Nc3ccccc3C)n(N)c2=O)cc1 | inconclusive: 3.16 µM [inhibitor, partial curve, poor fit] | 
CC(=O)N(c1ccccc1)C1CCCC1 | inactive | 
CCOc1ccc(CCNC(=O)C2=C(C)C(=O)OC23CCCCC3)cc1 | inactive | 

Structure (SMILES) | Potency | activity change, negative = inhibition
CCCc1ccc(-c2cc(C(=O)N/N=C/c3ccc([N+](=O)[O-])o3)c3ccccc3n2)cc1 | active: 7.08 µM | 
CS(=O)(=O)c1cnc2c(-c3ccsc3)cnn2c1N | inconclusive: 0.316 µM [activator, full curve, poor fit] | 
O=C(Nc1cc(S(=O)(=O)Nc2ccc(Cl)cc2)ccc1O)c1ccc(F)cc1F | inconclusive: 35.5 µM [inhibitor, single point] | 
O=C(c1ccccc1NS(=O)(=O)c1cccs1)N1CCCC1 | inconclusive: 0.164 µM [inhibitor, full curve, poor fit] | 
CCN1C(=O)c2ccccc2S(=O)c2ccc(C(=O)N3CCN(c4cc(Cl)ccc4C)CC3)cc21 (stereo unspecified) | inconclusive: 10 µM [inhibitor, partial curve, poor fit] | 
Cc1noc(NS(=O)(=O)c2ccc(N/C=C\C(=O)c3ccc(F)cc3)cc2)c1C | inactive | 
O=C(CCCl)Nc1nc2c(s1)CCc1ccccc1-2 | inconclusive: 12.6 µM [inhibitor, partial curve, poor fit] | 
OC(CNC1Cc2ccccc2C1)c1ccccc1 (stereo unspecified) | inactive | 
CC(C)n1nnnc1SCC(=O)Nc1cccc(F)c1 | inconclusive: 8.91 µM [activator, partial curve, poor fit] | 
CC(=O)N1N=C(c2ccc(C)cc2)OC1c1ccc(C(C)C)cc1 (stereo unspecified) | inconclusive: 2.06 µM [activator, partial curve, poor fit] | 
C=CCn1c(CNC(=O)c2cccs2)nnc1SCc1ccc(Cl)cc1Cl | inconclusive: 5.62 µM [activator, single point] | 
COc1ccc(-c2c3c(=O)n(C)c(=O)n(C)c3c3n2-c2ccccc2NC3c2ccco2)cc1 (stereo unspecified) | inconclusive: 3.16 µM [inhibitor, single point] | 
CCOc1ccc(CCNC(=O)Cn2nc(CC)n3c(cc4ccccc43)c2=O)cc1 | inconclusive: 6.31 µM [inhibitor, single point] | 
CC(C)C(=O)Nc1ccc(C(=O)NNC(=O)CCc2ccccc2)cc1 | inconclusive: 3.16 µM [activator, full curve, poor fit] | 
COc1cccc(Nc2nc(-c3sc(N)nc3C)cs2)c1 | inconclusive: 0.0058 µM [inhibitor, full curve, poor fit] | 
CC1CC(C)CN(C(=O)CNC(=O)Cn2ccc3ccccc3c2=O)C1 (stereo unspecified) | inconclusive: 6.31 µM [inhibitor, single point] | 
Cc1cccc(OCC(=O)N(Cc2cccs2)c2ccc(Cl)cc2)c1C | inconclusive: 35.5 µM [inhibitor, single point] | 
N#Cc1ccc(NC(=O)COc2ccc(-n3cnnn3)cc2)cc1 | inconclusive: 3.98 µM [inhibitor, single point] | 
CC(C)CCNC(=O)c1cc(-c2ccco2)nc2ccccc12 | inactive | 
O=C(N/N=C/c1c[nH]c2ccccc12)C1CC1c1ccccc1 (stereo unspecified) | inconclusive: 7.08 µM [inhibitor, full curve] | 
Brc1ccc2ncnc(NCc3ccco3)c2c1 | inconclusive: 18.3 µM [inhibitor, single point] | 
O=C1CCN(C(=O)CSc2ccc(Cl)cc2)N1 |  | inconclusive: 26.1% [activator] [at 46.1 µM]

Structure (SMILES) | Potency | activity change, negative = inhibition
NNC(=O)[C@H](Cc1ccccc1)NC(=O)Nc1ccc2c(c1)OCCO2 | inactive | 
CN(CC(=O)NCCc1ccccc1)S(=O)(=O)c1ccc(Br)cc1 | inactive | 
Cc1cc(C(=O)Nc2ccc3ccccc3c2)oc1C | inconclusive: 17.8 µM [inhibitor, single point] | 
CCCCN(CCCC)C(=O)c1cc2c(=O)n3cccc(C)c3nc2s1 | inconclusive: 4.47 µM [inhibitor, full curve, poor fit] | 
COCC(=O)N1CCC(Oc2ccc(C(=O)NCc3cc(C)n(C)n3)cc2)CC1 | inactive | 
Cc1nn(CC(=O)NCCCN2CCOCC2)c(C)c1[N+](=O)[O-] | inconclusive: 0.0164 µM [inhibitor, full curve, poor fit] | 
CCc1ccc(OCCOCC(O)CNC(C)CC)cc1 (stereo unspecified) | inconclusive: 17.8 µM [inhibitor, single point] | 
Cc1cccnc1NCc1ccc(O)c2ncccc12 | inconclusive: 35.5 µM [inhibitor, single point] | 
CCOC(=O)C1(CCc2ccccc2)CCN(C(=O)Cc2nonc2C)CC1 | inconclusive: 0.794 µM [inhibitor, single point] | 
Cc1ccc(C)c(-n2c(Cc3cccs3)n[nH]c2=S)c1 | inconclusive: 3.16 µM [activator, single point] | 
CCN1CCCC1CNCc1ccccc1OCc1ccc(F)cc1 (stereo unspecified) | inconclusive: 29.1 µM [inhibitor, single point] | 
O=C(CSc1nc2ccccc2c(=O)n1Cc1ccco1)c1ccccc1 | inactive | 
O=C(NCC1CCN(Cc2cccc(Cl)c2)CC1)Nc1cc(Cl)ccc1Cl | inactive | 
COc1ccc2c(CC(=O)NC3CCCc4ccccc43)coc2c1 (stereo unspecified) | inconclusive: 3.98 µM [inhibitor, full curve] | 
CCc1ccc(NC(=O)c2sc(-n3nc(C)c(Cc4ccc(OC)cc4)c3C)nc2C)cc1 | inconclusive: 0.631 µM [inhibitor, full curve, poor fit] | 
CCOC(=O)c1c(C)nc2sc3c(=O)n(-c4ccc(C(C)=O)cc4)cnc3c2c1-c1ccc(Cl)cc1 | inconclusive: 15.8 µM [inhibitor, single point] | 
COc1cc(C(C(=O)NC2CCCC2)N(C(=O)c2snc(C(N)=O)c2N)C2CCCC2)cc(OC)c1OC (stereo unspecified) | inactive | 
Cc1ccc2nc(N3C(=O)C(O)=C(C(=O)c4ccco4)C3c3cccs3)sc2c1 (stereo unspecified) | inconclusive: 29.1 µM [inhibitor, single point] | 
C/C(NC(=O)c1cccc(F)c1)=C1/C(=O)C[C@@H]2[C@H]1C2(C)C | inactive | 
COc1ccccc1CNc1ccc(-c2nc(-c3cccnc3)no2)cc1[N+](=O)[O-] | inactive | 
CC(C)C(=O)Nc1ccc(C(=O)Nc2ccc(Br)cc2F)cc1 | inconclusive: 0.562 µM [inhibitor, full curve, poor fit] | 
Cc1ccc(C(=O)Nc2ccc(-c3cn4cccnc4n3)cc2)cc1C | inconclusive: 25.1 µM [inhibitor, single point] | 

A different layout for some results above:

| Structure (SMILES) | Potency | activity change, negative = inhibition |
| --- | --- | --- |
| CC(=O)N(c1ccccc1)C1CCCC1 | inactive |  |
| CCOc1ccc(CCNC(=O)C2=C(C)C(=O)OC23CCCCC3)cc1 | inactive |  |
| CCCc1ccc(-c2cc(C(=O)N/N=C/c3ccc([N+](=O)[O-])o3)c3ccccc3n2)cc1 | active: 7.08 µM |  |
| CS(=O)(=O)c1cnc2c(-c3ccsc3)cnn2c1N | inconclusive: 0.316 µM [activator, full curve, poor fit] |  |
| O=C(Nc1cc(S(=O)(=O)Nc2ccc(Cl)cc2)ccc1O)c1ccc(F)cc1F | inconclusive: 35.5 µM [inhibitor, single point] |  |
